Assay results published in patent publication US10246481B2, “Bile acid derivatives and methods for synthesis and use” (City of Hope, priority 2016, dated 2019).
At least one compound was matched to its structure with a doubt left.

System: pAKT S473
Test: Western blot of AKT phosphorylation in serum-starved HepG2 cells
Assay type: cell-based, human
Conditions: 10 min
Method: Cell extracts were used to separate proteins by SDS-PAGE, and Western blot analysis was performed using specific antibodies against phosphorylated AKT and phosphorylated GSK3beta. […] Extracts were analyzed by Western blot using specific antibodies against pAKT S473 (left panel) or pGSK3beta (right panel).
To further investigate the dose dependence of AKT phosphorylation, we treated HepG2 cells with increasing concentrations of 6EUDCA. Serum-starved HepG2 cell extracts were prepared after incubation with different concentrations of 6EUDCA (DMSO/0 M, 1 μM, 3 μM, 10 µM or 30 µM) for 10 min. Extracts were analyzed by Western blot using specific antibodies against pAKT S473 (left panel) or pGSK3beta (right panel).

For C[C@H](CCC(=O)O)[C@H]1CC[C@H]2[C@@H]3[C@@H](O)C[C@@H]4C[C@H](O)CC[C@]4(C)[C@H]3CC[C@]12C [UDCA, Ursodeoxycholic acid, reference compound], the “induction of AKT phosphorylation” value was “effective in inducing AKT phosphorylation”.
